# Reference: PubChem BioAssay AID686938 (Drosophila RNAi Screening Center, 2013)
# Screen: 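Fly genes required for calcium entry once internal stores are emptied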 (primary screen)
# Cells: Drosophila S2R+ cells
# Knock-down reagent: long dsRNA against Drosophila genes, about 0.25 µg dsRNA per well, roughly 10,000 cells
# Time to read-out: 5 days of knock-down before the calcium assay
# Challenge: thapsigargin (SERCA pump blocker) to empty calcium stores; entry signal taken 4 min after adding it
# Read-out: 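Duplicate raw fluo-4 intensities per well from a plate reader, at rest and four minutes after thapsigargin emptied calcium stores; entry-to-rest ratio filled for only some wells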
# Direction: calcium entry signal: higher = stronger calcium signal after store depletion; resting calcium signal: higher = higher resting calcium signal
# Call rule: 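Called when the plate z-score of the entry-to-rest ratio, mean of duplicates, falls below −3; wells with low overall dye signal (Fmax z below −2) or more than five off-targets excluded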
# Calls: active = strongly reduced calcium entry; inactive = no strong reduction
# The deposit covers about 23,000 reagents; below is a random part of those that have a named target and a result. Over the whole deposit, 75 (0.33%) got an active call. 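Raw plate signals without normalisation; calls rest on plate z-scores that were not deposited; ratio present for only 364 wells.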 Entries without a mark were called inactive. Reagents against one gene are numbered here. Names joined by + are all predicted targets of the reagent. Not given: the dose of the treatment.
Target gene,reagent,"calcium entry signal, replicate 1 (fluorescence units)","calcium entry signal, replicate 2 (fluorescence units)","resting calcium signal, replicate 1 (fluorescence units)","resting calcium signal, replicate 2 (fluorescence units)"
CG6628,1,3.05e7,3.58e7,1.67e7,1.77e7
Remo,1,4.61e7,4.34e7,2.11e7,1.77e7
sol,1,4.01e7,3.94e7,1.82e7,1.51e7
GAPsec,1,4.73e7,3.00e7,2.85e7,1.33e7
RhoGAP54D,1,5.08e7,6.66e7,2.18e7,3.08e7
mia,1,3.06e7,3.71e7,1.47e7,1.67e7
eve,1,2.80e7,2.47e7,1.32e7,1.16e7
CG15014,1,1.78e7,4.83e7,8.32e6,1.87e7
BicC,1,4.72e7,3.67e7,2.01e7,1.80e7
CG42240,1,3.66e7,3.55e7,1.81e7,1.81e7
CG2839,1,2.91e7,3.19e7,1.50e7,1.54e7
kay,1,3.72e7,3.82e7,1.82e7,2.04e7
kay,2,3.68e7,4.71e7,1.91e7,2.16e7
kay,3,4.33e7,4.66e7,2.43e7,2.73e7
alphaTub67C,1,2.54e7,3.53e7,1.58e7,2.08e7
CG9132,1,5.07e7,4.50e7,2.20e7,1.72e7
m-cup,1,3.02e7,5.29e7,1.51e7,7.02e7
brun,1,4.23e7,,2.02e7,
cu,1,1.79e7,2.11e7,1.03e7,1.04e7
cu,2,2.45e7,1.88e7,1.29e7,1.06e7
CG9517 (retired record),1,2.94e7,3.19e7,1.59e7,1.49e7
CG9517 (retired record),2,3.40e7,2.85e7,1.76e7,1.43e7
alphaTub84B,1,2.23e7,2.86e7,1.34e7,1.97e7
Gr10a,1,2.09e7,3.32e7,9.79e6,1.45e7
Gr10a,2,3.55e7,3.32e7,1.71e7,1.68e7
CG9368,1,2.72e7,3.45e7,1.20e7,2.26e7
CG32537,1,4.50e7,4.96e7,2.09e7,2.02e7
LManVI,1,2.53e7,3.61e7,1.21e7,1.55e7
CG15605,1,4.37e7,3.93e7,1.91e7,1.94e7
scpr-A + scpr-C,1,3.42e7,3.43e7,1.68e7,1.60e7
CRMP,1,2.72e7,4.89e7,1.44e7,2.27e7
CRMP,2,3.04e7,3.58e7,1.35e7,1.54e7
CG4301,1,2.28e7,2.86e7,1.27e7,1.27e7
CG14074,1,2.44e7,4.33e7,1.31e7,1.77e7
CG17404,1,3.52e7,1.97e7,1.69e7,1.12e7
beat-Vc,1,4.09e7,3.85e7,2.18e7,1.77e7
beat-Vc,2,4.08e7,3.16e7,2.02e7,1.53e7
Dph5,1,4.28e7,2.65e7,2.04e7,1.33e7
Trf,1,3.31e7,4.64e7,1.59e7,2.11e7
CG5854,1,5.28e7,2.36e7,2.29e7,1.26e7
CG4950,1,3.92e7,4.64e7,1.87e7,1.67e7
Cpr47Eb,1,2.64e7,3.44e7,1.34e7,1.42e7
pths,1,1.97e7,1.88e7,1.27e7,1.21e7
Elp2,1,4.67e7,4.39e7,1.87e7,1.83e7
CG14696,1,3.81e7,3.71e7,1.91e7,1.88e7
Cen,1,2.90e7,,1.55e7,
heca,1,3.24e7,3.79e7,1.87e7,2.21e7
heca,2,3.94e7,2.89e7,2.07e7,1.37e7
CG32344,1,3.27e7,2.70e7,1.60e7,1.62e7
CG11298,1,2.35e7,3.44e7,1.46e7,1.43e7
AP-1gamma,1,1.50e7,3.59e7,8.32e6,1.73e7
CG32834,1,3.24e7,3.52e7,1.60e7,2.03e7
Cpn,1,3.03e7,4.41e7,1.41e7,1.72e7
mTerf5,1,4.40e7,4.08e7,1.95e7,1.81e7
ppk18,1,3.35e7,4.89e7,1.77e7,2.14e7
ppk18,2,3.62e7,4.12e7,1.79e7,1.70e7
SmE,1,2.16e7 (active),1.78e7,1.32e7,1.13e7
Bgb,1,4.09e7,3.89e7,1.83e7,1.73e7
